Library screen at single concentrations

Chains of the proteins cited; added tags and fusions are not shown.
UniProt I6X8D2, whole entry: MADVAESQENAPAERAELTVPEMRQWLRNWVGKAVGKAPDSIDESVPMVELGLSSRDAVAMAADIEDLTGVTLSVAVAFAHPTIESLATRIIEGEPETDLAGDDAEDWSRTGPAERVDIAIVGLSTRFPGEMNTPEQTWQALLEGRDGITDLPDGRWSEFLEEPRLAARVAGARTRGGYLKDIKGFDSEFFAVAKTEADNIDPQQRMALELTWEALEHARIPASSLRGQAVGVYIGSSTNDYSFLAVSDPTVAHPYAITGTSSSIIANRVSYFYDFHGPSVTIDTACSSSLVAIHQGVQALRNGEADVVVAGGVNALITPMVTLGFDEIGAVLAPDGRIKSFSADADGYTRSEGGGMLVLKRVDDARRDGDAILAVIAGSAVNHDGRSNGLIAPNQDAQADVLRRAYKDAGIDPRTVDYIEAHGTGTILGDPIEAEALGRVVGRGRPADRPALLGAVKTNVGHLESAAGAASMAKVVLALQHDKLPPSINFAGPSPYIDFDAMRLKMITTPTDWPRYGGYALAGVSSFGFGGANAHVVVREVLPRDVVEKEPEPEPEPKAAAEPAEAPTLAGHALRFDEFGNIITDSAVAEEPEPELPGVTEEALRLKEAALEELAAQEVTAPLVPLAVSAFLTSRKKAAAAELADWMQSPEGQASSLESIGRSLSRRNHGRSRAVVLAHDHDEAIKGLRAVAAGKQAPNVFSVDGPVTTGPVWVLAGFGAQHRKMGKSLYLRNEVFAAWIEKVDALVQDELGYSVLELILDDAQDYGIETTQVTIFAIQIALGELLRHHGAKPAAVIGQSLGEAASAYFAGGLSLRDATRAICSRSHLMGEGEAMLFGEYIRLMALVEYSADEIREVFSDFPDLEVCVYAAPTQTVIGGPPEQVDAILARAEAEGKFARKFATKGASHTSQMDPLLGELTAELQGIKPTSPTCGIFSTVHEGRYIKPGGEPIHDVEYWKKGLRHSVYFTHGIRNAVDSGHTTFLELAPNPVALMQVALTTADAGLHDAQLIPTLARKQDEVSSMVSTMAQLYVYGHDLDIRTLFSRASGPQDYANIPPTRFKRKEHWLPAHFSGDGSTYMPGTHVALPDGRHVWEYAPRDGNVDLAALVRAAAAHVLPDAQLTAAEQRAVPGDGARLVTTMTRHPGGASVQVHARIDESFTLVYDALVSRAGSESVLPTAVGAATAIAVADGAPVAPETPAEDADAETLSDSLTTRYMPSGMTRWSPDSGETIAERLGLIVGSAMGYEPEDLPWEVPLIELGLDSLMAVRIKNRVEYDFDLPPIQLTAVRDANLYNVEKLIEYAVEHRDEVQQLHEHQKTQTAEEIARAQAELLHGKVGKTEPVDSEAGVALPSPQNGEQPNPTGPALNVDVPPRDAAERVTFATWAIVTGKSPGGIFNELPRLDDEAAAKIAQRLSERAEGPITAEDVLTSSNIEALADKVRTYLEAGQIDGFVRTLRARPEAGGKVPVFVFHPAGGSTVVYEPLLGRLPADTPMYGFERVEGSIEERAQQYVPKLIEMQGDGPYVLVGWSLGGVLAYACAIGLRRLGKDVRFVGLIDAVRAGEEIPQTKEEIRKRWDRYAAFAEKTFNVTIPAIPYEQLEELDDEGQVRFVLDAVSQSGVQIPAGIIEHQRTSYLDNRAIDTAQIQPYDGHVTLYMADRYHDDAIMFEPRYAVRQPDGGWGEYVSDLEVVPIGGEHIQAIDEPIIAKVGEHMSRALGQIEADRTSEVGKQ

The values are deposited in ChEMBL (CHEMBL3988442, “University of Dundee, Small-Polar-MMV Screening Library” (2021)).

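Polyketide synthase Pks13, Mycobacterium tuberculosis (UniProt I6X8D2). Enzyme assay of the thioesterase domain of polyketide synthase 13; the read-out is not stated. Compounds at 30 µM. Higher reads as stronger inhibition (inferred from which compounds were picked for retests). About 67,000 compounds were tested under these conditions; 0.46% (about 300) showed 50% or more at least once.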

The filed quantity is “Percent Effect” (%). How 0% and 100% were set is not recorded. Most values in the screen are low, and negative values occur. Compounds were drawn at random from those tested, without regard to their results.

{"compound": "COc1ccc(CN2CCOC[C@H](OCCC(C)C)C2)cc1", "Percent Effect": -31.57}
{"compound": "CCN1CC[C@@H]2OC[C@H](C(=O)NCc3cccs3)C[C@@H]2C1", "Percent Effect": -23.99}
{"compound": "OC1(CN2CCCC2)COCCN(c2nnc(-c3ccccc3)s2)C1", "stereo": "stereo not shown", "Percent Effect": -14}
{"compound": "CN1CCOC(C)(C(=O)Nc2nc(C(C)(C)C)cs2)C1", "stereo": "stereo not shown", "Percent Effect": 9.322}
{"compound": "Cc1cccc(N2CCCC3(C2)CN(S(C)(=O)=O)CCO3)c1", "stereo": "stereo not shown", "Percent Effect": -39.83}
{"compound": "Cc1nc(C(=O)Nc2cc(N3CCNC3=O)ccc2Cl)cs1", "Percent Effect": -30.26}
{"compound": "O=C(NCc1nnc2n1CCCCC2)N1CCc2ccccc2C1", "Percent Effect": -13.37}
{"compound": "N#CCCN(C(=O)CN1CCCC1c1ccccc1Cl)c1ccccc1", "stereo": "stereo not shown", "Percent Effect": -18.52}
{"compound": "Cc1nnc(NC(=O)NCc2ccc(N3CCNC(=O)C3)cc2)s1", "Percent Effect": 7.459}
{"compound": "O=C(CCN1CCCCCC1c1ccco1)N1CCOCC1", "stereo": "stereo not shown", "Percent Effect": -29.88}
{"compound": "Cc1cccc(C(=O)N2C[C@@H]3CCN(c4cccnc4)C[C@@H]3C2)c1", "Percent Effect": -39.17}
{"compound": "Cn1cccc1C(=O)NC[C@H]1C[C@@H]2CN(C(=O)c3ccco3)C[C@@H]2O1", "Percent Effect": 1.937}
{"compound": "CCn1c(Cn2cncn2)nnc1C1CCN(CCN)CC1", "Percent Effect": -7.652}
{"compound": "CO[C@@H]1CCN(Cc2ccoc2)[C@H]1Cc1ccccc1", "Percent Effect": -0.1021}
{"compound": "Cc1ccc(C(C(=O)NCCc2nc(C)cc(=O)[nH]2)N(C)C)cc1", "stereo": "stereo not shown", "Percent Effect": -13.33}
{"compound": "Cc1nc(CN2CC(CO)Oc3ccccc32)sc1C", "stereo": "stereo not shown", "Percent Effect": -40.21}
{"compound": "Cc1cccc(CN2CCC(c3nccn3CC(N)=O)CC2)n1", "Percent Effect": -16.89}
{"compound": "Cc1ccc(O)c(CN2CCCCC2CCN2CCOCC2)c1", "stereo": "stereo not shown", "Percent Effect": -10.15}
{"compound": "Cc1cccc(NC(=O)C2CSc3ncc(C)c(=O)n3C2)n1", "stereo": "stereo not shown", "Percent Effect": -4.544}
{"compound": "COc1ccc(-c2noc(C(CC(C)C)N3CCCCC3=O)n2)cn1", "stereo": "stereo not shown", "Percent Effect": -11.23}
{"compound": "Cc1cc(NCCNS(C)(=O)=O)nc2cc3c(cc12)CCC3", "Percent Effect": -39.45}
{"compound": "NS(=O)(=O)c1cnc(NCC2(c3ccccc3)CCC2)s1", "Percent Effect": -20.5}
{"compound": "CC(c1ccco1)N(C)Cc1cc2cc3c(cc2[nH]c1=O)OCO3", "stereo": "stereo not shown", "Percent Effect": 12.9}
{"compound": "O=C(NC[C@H]1OC[C@@H](NCc2ccccc2F)[C@@H]1O)c1ccc(F)cc1", "Percent Effect": -35.59}
{"compound": "Cc1cc(S(=O)(=O)N2CCCc3ccc(F)cc32)sc1C(=O)O", "Percent Effect": -0.1844}
{"compound": "COCCNC(=O)[C@@H]1CC[C@@H]2[C@@H](CCN2c2ncc(F)cn2)O1", "Percent Effect": -23.02}
{"compound": "Cc1cccc(C(C(=O)N2CC(c3ccncc3)C2)N(C)C)c1", "stereo": "stereo not shown", "Percent Effect": -3.324}
{"compound": "Cc1nccc(CNC(=O)NCCOc2ccc(F)c(F)c2)n1", "Percent Effect": -15.9}
{"compound": "N#CCCN(Cc1cccnc1)C(=O)c1cccc(-n2cnnn2)c1", "Percent Effect": -5.407}
{"compound": "CC(C)NC1CCCc2nc(-c3ccccc3)ncc21", "stereo": "stereo not shown", "Percent Effect": -7.157}
{"compound": "Cc1cc(CN(C)Cc2csc(-c3ccc(C(C)C)cc3)n2)no1", "Percent Effect": -10.47}
{"compound": "Cc1c(CN2CCOCC2)c(O)n(CCO)c(=O)c1C#N", "Percent Effect": -14.67}
{"compound": "CCc1c(C)[nH]c(C2(N)CCCC2)nc1=O", "Percent Effect": -11.47}
{"compound": "Cc1ncc2c(n1)CN(Cc1nc(C)c(C)o1)CC2", "Percent Effect": -3.349}
{"compound": "CN1CC2(CCCN(Cc3nnc(-c4cccc(F)c4)o3)C2)OC1=O", "stereo": "stereo not shown", "Percent Effect": -2.647}
{"compound": "Cc1nc(N2CCCC2)nc2c1CCN(C(=O)C1CCCCC1)CC2", "Percent Effect": 0.2032}
{"compound": "Cc1cc(NS(=O)(=O)c2cnc3onc(C)c3c2)no1", "Percent Effect": -31.12}
{"compound": "c1ccc2oc(NC3CCCN(Cc4noc(C5CC5)n4)C3)nc2c1", "stereo": "stereo not shown", "Percent Effect": -10.2}
{"compound": "Cc1ccc(C(CNC(=O)NCc2ccccn2)N2CCOCC2)o1", "stereo": "stereo not shown", "Percent Effect": -27.89}
{"compound": "Cc1nc(-c2c(C)noc2C)cc(C2CCN(S(=O)(=O)N(C)C)CC2)n1", "Percent Effect": -5.034}
{"compound": "O=C(NC1CC1)c1cc2c(s1)CCN2C(=O)C1CC1", "Percent Effect": 12.44}
{"compound": "COc1ccc(CC(=O)N(C)c2cccnc2N(C)C)c(Cl)c1", "Percent Effect": 4.186}
{"compound": "CNc1cc(N2CCCC2CNCc2c[nH]nc2C(C)(C)C)ncn1", "stereo": "stereo not shown", "Percent Effect": -10.91}
{"compound": "Cc1ccc(NC2CCN(C(=O)CCOCC(F)(F)F)CC2)nn1", "Percent Effect": -11.36}

Some entries from above, unchanged:

compound,Percent Effect
COc1ccc(CC(=O)N(C)c2cccnc2N(C)C)c(Cl)c1,4.186
Cc1nc(-c2c(C)noc2C)cc(C2CCN(S(=O)(=O)N(C)C)CC2)n1,-5.034
COCCNC(=O)[C@@H]1CC[C@@H]2[C@@H](CCN2c2ncc(F)cn2)O1,-23.02